PubChem BioAssay AID686943 | Drosophila RNAi Screening Center – 2013
The screen tested about 23,000 reagents; below is a random part of those with a known target gene and a result. 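Extra replicates exist only for a retested subset of genes; insulin dose and duration not given; both raised and lowered dpERK matter.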 A plus sign joins genes that one reagent is predicted to hit. Not all columns of the deposit are shown. The record does not give: the amount of reagent, the time to read-out.

Purpose: 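Knockdowns that increase or decrease active ERK after insulin receptor stimulation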 (primary screen)
Cell system: Drosophila S2R+ haemocyte-like cells expressing YFP-tagged ERK (Rolled)
Reagent: long dsRNA against Drosophila genes
Treatment: insulin stimulation versus unstimulated cells; dose and duration not given
Read-out: 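Per-plate z-scores of phospho-ERK immunostaining normalised to YFP-tagged ERK, measured with and without insulin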
Scale: replicate 1, z-score of dpERK with insulin and replicate 2, z-score of dpERK with insulin: higher = more active ERK per ERK-YFP after insulin

With CG8708 [DRSC07240], how do the results read?
replicate 1, z-score of dpERK with insulin: -0.27; replicate 2, z-score of dpERK with insulin: 0.21

With CG15198 [DRSC19645], what does the deposit list?
replicate 1, z-score of dpERK with insulin: 0.15; replicate 2, z-score of dpERK with insulin: 0.46

What is on record for CG11703 [DRSC14356]?
replicate 1, z-score of dpERK with insulin: 0.62; replicate 2, z-score of dpERK with insulin: 0.31

What is on record for Zdhhc8 (Zinc finger DHHC-type containing 8) [DRSC18044]?
replicate 1, z-score of dpERK with insulin: -4.66; replicate 2, z-score of dpERK with insulin: -4.02

With Zdhhc8 (Zinc finger DHHC-type containing 8) [DRSC18122], what was measured?
replicate 1, z-score of dpERK with insulin: 0.93; replicate 2, z-score of dpERK with insulin: 2

With Obp50a (Odorant-binding protein 50a) [DRSC22152], what does the deposit list?
replicate 1, z-score of dpERK with insulin: 0.47; replicate 2, z-score of dpERK with insulin: 0.2

No new results follow: entries from further up.
CG11703 [DRSC14356]: replicate 1, z-score of dpERK with insulin = 0.62; replicate 2, z-score of dpERK with insulin = 0.31
Zdhhc8 (Zinc finger DHHC-type containing 8) [DRSC18044]: replicate 1, z-score of dpERK with insulin = -4.66; replicate 2, z-score of dpERK with insulin = -4.02

Additional entries:
For CG6083 [DRSC10580], what was measured?
replicate 1, z-score of dpERK with insulin: 0.23; replicate 2, z-score of dpERK with insulin: -0.34

For Octbeta1R (Octopamine beta1 receptor) [DRSC16134], how do the results read?
replicate 1, z-score of dpERK with insulin: 1.25; replicate 2, z-score of dpERK with insulin: 0.39

Which result is listed for CG15225 [DRSC04232]?
replicate 1, z-score of dpERK with insulin: 0.17; replicate 2, z-score of dpERK with insulin: 0.66

With eve (even skipped) [DRSC07614], what was measured?
replicate 1, z-score of dpERK with insulin: 0.66; replicate 2, z-score of dpERK with insulin: 0.17

What is on record for Hers + amn [DRSC20306]?
replicate 1, z-score of dpERK with insulin: 0.13; replicate 2, z-score of dpERK with insulin: 0.19

What did the screen give for Hel25E (Helicase at 25E) [DRSC03342]?
replicate 1, z-score of dpERK with insulin: -0.29; replicate 2, z-score of dpERK with insulin: 1.09
